{"source": "PubChem BioAssay AID686943 (Drosophila RNAi Screening Center, 2013)", "assay": "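Fly genes whose loss alters ERK activation after insulin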 (primary screen)", "cells": "Drosophila S2R+ haemocyte-like cells expressing YFP-tagged ERK (Rolled)", "reagent": "long dsRNA against Drosophila genes", "challenge": "insulin stimulation versus unstimulated cells; dose and duration not given", "detection": "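Per-plate z-scores of phospho-ERK immunostaining normalised to YFP-tagged ERK, measured with and without insulin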", "reading the numbers": "replicate 1, z-score of dpERK with insulin: higher = more active ERK per ERK-YFP after insulin", "note": "The deposit covers about 23,000 reagents; shown is an unselected part of those with a known target gene and a result. 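Extra replicates exist only for a retested subset of genes; insulin dose and duration not given; both raised and lowered dpERK matter.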 Reagents against one gene are numbered here. Names joined by + are all predicted targets of the reagent. Further read-outs or replicates are left out here. No sequences are given here. Not stated in the record: the amount of reagent, the time to read-out."}
The opening 3 records, ahead of the listing:
{"Gene": "tst (GeneID 42813)", "reagent": 1, "replicate 1, z-score of dpERK with insulin": -0.28}
{"Gene": "tum (GeneID 36538)", "reagent": 1, "replicate 1, z-score of dpERK with insulin": -0.48}
{"Gene": "Cpr49Ae (GeneID 36351)", "reagent": 1, "replicate 1, z-score of dpERK with insulin": -0.17}

Results, from the first entry:
{"Gene": "tst (GeneID 42813)", "reagent": 1, "replicate 1, z-score of dpERK with insulin": -0.28}
{"Gene": "tum (GeneID 36538)", "reagent": 1, "replicate 1, z-score of dpERK with insulin": -0.48}
{"Gene": "Cpr49Ae (GeneID 36351)", "reagent": 1, "replicate 1, z-score of dpERK with insulin": -0.17}
{"Gene": "CG4734 (GeneID 36477)", "reagent": 1, "replicate 1, z-score of dpERK with insulin": 1.82}
{"Gene": "CG4734 (GeneID 36477)", "reagent": 2, "replicate 1, z-score of dpERK with insulin": 0.71}
{"Gene": "CG11883 (GeneID 36121)", "reagent": 1, "replicate 1, z-score of dpERK with insulin": 0.35}
{"Gene": "CG42713 (GeneID 10178890)", "reagent": 1, "replicate 1, z-score of dpERK with insulin": -0.67}
{"Gene": "CG4467 (GeneID 42747)", "reagent": 1, "replicate 1, z-score of dpERK with insulin": 0.97}
{"Gene": "CG13223 (GeneID 36190)", "reagent": 1, "replicate 1, z-score of dpERK with insulin": 0.38}
{"Gene": "CG15370 (GeneID 31864)", "reagent": 1, "replicate 1, z-score of dpERK with insulin": -3.71}
{"Gene": "CG2116 (GeneID 31735)", "reagent": 1, "replicate 1, z-score of dpERK with insulin": 0.25}
{"Gene": "alphaSnap (GeneID 40233)", "reagent": 1, "replicate 1, z-score of dpERK with insulin": 1}
{"Gene": "CG3556 (GeneID 31380)", "reagent": 1, "replicate 1, z-score of dpERK with insulin": 1}
{"Gene": "CG32487 (GeneID 38358)", "reagent": 1, "replicate 1, z-score of dpERK with insulin": 0}
{"Gene": "CG9674 (GeneID 39878)", "reagent": 1, "replicate 1, z-score of dpERK with insulin": 0.34}
{"Gene": "CG9674 (GeneID 39878)", "reagent": 2, "replicate 1, z-score of dpERK with insulin": 0.53}
{"Gene": "CG33919 (GeneID 3772720)", "reagent": 1, "replicate 1, z-score of dpERK with insulin": -0.97}
{"Gene": "Rab9D + Rab9Fa + Rab9E", "reagent": 1, "replicate 1, z-score of dpERK with insulin": -0.54}
{"Gene": "CG8745 (GeneID 39530)", "reagent": 1, "replicate 1, z-score of dpERK with insulin": -0.51}
{"Gene": "CG8745 (GeneID 39530)", "reagent": 2, "replicate 1, z-score of dpERK with insulin": 0.34}
{"Gene": "CG8745 (GeneID 39530)", "reagent": 3, "replicate 1, z-score of dpERK with insulin": -0.33}
{"Gene": "l(3)07882 (GeneID 46201)", "reagent": 1, "replicate 1, z-score of dpERK with insulin": -0.12}
{"Gene": "CG5986 (GeneID 192506)", "reagent": 1, "replicate 1, z-score of dpERK with insulin": 0.85}
{"Gene": "Yp1 (GeneID 31939)", "reagent": 1, "replicate 1, z-score of dpERK with insulin": -0.02}
{"Gene": "Eig71Ej (GeneID 39711)", "reagent": 1, "replicate 1, z-score of dpERK with insulin": -0.06}
{"Gene": "clu (GeneID 36793)", "reagent": 1, "replicate 1, z-score of dpERK with insulin": -0.12}
{"Gene": "CG6154 (GeneID 43184)", "reagent": 1, "replicate 1, z-score of dpERK with insulin": -0.11}
{"Gene": "CG1965 (GeneID 40842)", "reagent": 1, "replicate 1, z-score of dpERK with insulin": 0.89}
{"Gene": "CG1965 (GeneID 40842)", "reagent": 2, "replicate 1, z-score of dpERK with insulin": 0.38}
{"Gene": "wbl (GeneID 37206)", "reagent": 1, "replicate 1, z-score of dpERK with insulin": -1.48}
{"Gene": "Sgs8 (GeneID 39285)", "reagent": 1, "replicate 1, z-score of dpERK with insulin": -0.3}
{"Gene": "Lip3 (GeneID 41643)", "reagent": 1, "replicate 1, z-score of dpERK with insulin": 0.2}
{"Gene": "bip1 (GeneID 38891)", "reagent": 1, "replicate 1, z-score of dpERK with insulin": 0.25}
{"Gene": "Vm32E (GeneID 34558)", "reagent": 1, "replicate 1, z-score of dpERK with insulin": -0.28}
{"Gene": "Tat (GeneID 32381)", "reagent": 1, "replicate 1, z-score of dpERK with insulin": 0.16}
{"Gene": "AANATL3 (GeneID 35285)", "reagent": 1, "replicate 1, z-score of dpERK with insulin": -0.43}
{"Gene": "CG14137 (GeneID 39300)", "reagent": 1, "replicate 1, z-score of dpERK with insulin": 0.6}
{"Gene": "CG33267 (GeneID 2768969)", "reagent": 1, "replicate 1, z-score of dpERK with insulin": 0.28}
{"Gene": "CG6908 (GeneID 41410)", "reagent": 1, "replicate 1, z-score of dpERK with insulin": 0.03}
{"Gene": "Targ (GeneID 36630)", "reagent": 1, "replicate 1, z-score of dpERK with insulin": -0.9}
